Source: PubChem BioAssay AID2685 (National Center for Advancing Translational Sciences (NCATS), 2010)
Among all 320,000 compounds or so, about 2,100 (0.66%) were called active. This list was built around the results that the source calls inconclusive (neither active nor inactive); the mix of calls is not that of the screen. Calls come from the whole dose curve; as a rule, active = well fitted inhibition curve with a large enough effect in the signal ratio, with a control signal flat (not every such curve was filed as active); inconclusive = small, poorly fitted or top-dose-only effect, or effect the other way, or a change in a side signal; inactive = flat fitted curve, though single readings scatter; the % refers to the signal ratio. Potencies beside an inconclusive call are fits to weak or partial responses and may not hold up.

Experiment: qHTS Assay for Lipid Storage Modulators in Drosophila S3 Cells
Conditions: BODIPY lipid droplet fluorescence, 18-24 h, cells fed with added oleic acid; lipid storage change, negative = inhibition: at 46.1 µM (top of the series) unless noted
Summary of the method: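 Drosophila S3 cells got compounds at several concentrations plus oleic acid (400 uM solution). Laser-scanning cytometry with 488 nm excitation read lipid droplets at 500-530 nm and cells at 575-640 nm. Percent activity was relative to 20 uM Triacsin C.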
% is set by controls: 0 for no effect and ±100 for the full control effect; potency is the fitted concentration of half-maximal effect.

Row | Compound | lipid storage change, negative = inhibition | Potency
1 | CCOC(=O)N1CCC(c2cc(=O)n3[nH]ccc3n2)CC1 | inconclusive: 12.5% | –
2 | C[C@@H]1CC=C[C@H]2[C@H]1C(=O)N(Cc1ccccc1)[C@H]2c1ccc(F)c(Br)c1 | – | inconclusive: 29.1 µM [falling, single point]
3 | O=c1c2ccccc2n(CC(O)CN2CCCCC2)c2ccccc12 (centres undefined) | inconclusive: 3.71% | –
4 | CCOc1cccc(NC(=O)CSc2nncn2N)c1 | inconclusive: 7.16% | –
5 | COc1ccccc1C(=O)NCCc1c(C)[nH]c2c(C)ccc(F)c12 | inconclusive: 7.01% | –
6 | COc1cc(-n2c(C)nc3cccnc32)c(Cl)cc1C(=O)O | inconclusive: 39.1% | –
7 | S=c1[nH]ncc2ccccc12 | – | inconclusive: 6.51 µM [activator, single point]
8 | CCn1nnc2cc(C(=O)NCC(c3ccccc3OC)N(C)C)ccc21 (centres undefined) | inconclusive: -52.5% | –
9 | O=C(Nc1nnc(COc2ccc(Br)cc2)s1)c1ccco1 | inconclusive: 54.9% | –
10 | CCn1nnnc1SCC(=O)N1c2ccccc2CCc2ccccc21 | inconclusive: -14.6% | –
11 | CCOc1ccc(-c2nc(CSCC(=O)NCC3CCCO3)c(C)o2)cc1 (centres undefined) | inconclusive: 71.6% | –
12 | Cc1ccc(C(=O)Nc2ccc(S(=O)(=O)N3CCc4ccccc4C3)cc2)o1 | – | inconclusive: 3.66 µM [activator, single point]
13 | COc1ccc(OC)c(CN2CCN(C(=O)c3ccc(NS(=O)(=O)c4cccc([N+](=O)[O-])c4)cc3)CC2)c1 | inconclusive: 34.9% | –
14 | COc1ccc([N+](=O)[O-])cc1NC(=O)C1CCCN1S(=O)(=O)c1cccs1 (centres undefined) | inconclusive | –
15 | O=C(CSc1nc2ccccc2s1)Nc1ccc2c(c1)OCO2 | – | inconclusive: 3.66 µM [activator, partial curve]
16 | CN1CCC(OC(=O)c2cccc(Cl)c2)CC1 | inconclusive: 10.7% | –
17 | O=C(CN1CCN(c2nc(-c3ccc(F)cc3)cs2)CC1)Nc1ccc2c(c1)OCO2 | – | inconclusive: 23.1 µM [activator, single point]
18 | O=S(=O)(c1ccccc1)c1cnc2ccccc2c1 | inconclusive: 21% | –
19 | COCCn1c(SCC#N)nnc1-c1ccc2c(c1)OCO2 | inconclusive: 28.9% | –
20 | COc1cc(/C=N/n2nnnc2N)ccc1O | inconclusive: 4.97% | –
21 | Cc1ccc(C)c(OCCn2ccnc2)c1 | – | inconclusive: 29.1 µM [falling, single point]
22 | CC1(C)CC(=O)C=C(C(=O)N2CCCC(C(=O)c3cccc(Cl)c3)C2)O1 (centres undefined) | inconclusive: 0.217% | –
23 | COC(=O)CSc1nnc(-c2ccc(S(=O)(=O)NCc3ccccc3Cl)cc2)o1 | inconclusive: -18.6% | –
24 | O=C(N/N=C1/CCSC1)c1cccc([N+](=O)[O-])c1 | inconclusive: 22.2% | –
25 | Cc1ccc(Cn2ccc(NC(=O)c3cc(C(C)C)on3)n2)cc1 | inconclusive: 12.9% [at 9.22 µM] | –
26 | Cc1onc(-c2ccccc2)c1C(=O)Nc1ccc2c(C)cc(=O)oc2c1 | inconclusive: 51.3% | –
27 | COc1ccc(/C=C(/NC(=O)c2ccco2)C(=O)N2CCCC2=O)cc1 | – | inconclusive: 16.4 µM [activator, single point]

3 compounds drawn at random from those above, as already listed:
Row | Compound | lipid storage change, negative = inhibition | Potency
2 | C[C@@H]1CC=C[C@H]2[C@H]1C(=O)N(Cc1ccccc1)[C@H]2c1ccc(F)c(Br)c1 | – | inconclusive: 29.1 µM [falling, single point]
22 | CC1(C)CC(=O)C=C(C(=O)N2CCCC(C(=O)c3cccc(Cl)c3)C2)O1 (centres undefined) | inconclusive: 0.217% | –
9 | O=C(Nc1nnc(COc2ccc(Br)cc2)s1)c1ccco1 | inconclusive: 54.9% | –

(listing goes on)

Row | Compound | lipid storage change, negative = inhibition | Potency
28 | CC(C)Cc1nnc(NC(=O)CCC(=O)NCCc2ccccc2)s1 | inconclusive: -7.66% | –
29 | CC1CCCCC12NC(=O)N(CC(=O)N1CCN(S(=O)(=O)/C=C/c3ccccc3)CC1)C2=O (centres undefined) | inconclusive: 7.61% | –
30 | O=C(CCNS(=O)(=O)c1cccc2nonc12)Nc1ccc(Cl)cc1 | – | inconclusive: 1.16 µM [activator, partial curve]
31 | Fc1ccc(/C=N/Nc2ncnc3nc[nH]c23)cc1F | inconclusive: -4.96% | –
32 | COc1cc2c(cc1OC)C(c1ccccc1O)NCC2 (centres undefined) | inconclusive: 228% | –
33 | CC(C)c1nc2c(c(=O)n(C)c(=O)n2C)n1C | inconclusive: 9.92% | –
34 | Cc1cc(NC(=O)c2cc3cccc([N+](=O)[O-])c3[nH]2)ccc1F | inconclusive: 0.689% | –
35 | CCOC(=O)C(=NC(C)CC)NNc1ccc(Br)cc1 (centres undefined) | inconclusive: -31.8% | –
36 | CCN(CC)CCNC(=O)CCN1N=C(c2ccccc2)CCC1=O | inconclusive: 22.6% | –
37 | CC(=O)N1N=C(c2ccccc2)CC1c1cccc([N+](=O)[O-])c1 (centres undefined) | – | inconclusive: 6.51 µM [falling, single point]
38 | Cc1cccnc1NC(=O)Nc1cccc(Cl)c1 | inconclusive: 35% | –
39 | COC(=O)c1sc(-c2ccc(Cl)cc2)cc1NC(=O)c1ccccc1C(=O)O | inconclusive: 21.1% | –
40 | Clc1ccc(CNc2nnnn2-c2ccccc2)c(Cl)c1 | inconclusive: 33.3% | –
41 | Cc1cc(C)nc(NN2C(=O)/C(=C/c3ccc(O)cc3)SC2=S)n1 | inconclusive: 6.43% | –
42 | COc1ccc(-n2cnnc2SCC(=O)NC2CCCc3ccccc32)cc1 (centres undefined) | inconclusive: 114% | –
43 | N/C(=N\OC(=O)c1ccc(F)cc1)c1nonc1N | inconclusive: 3.74% | –
44 | CCc1ccc(OCC(=O)N/N=C/c2cc([N+](=O)[O-])ccc2N2CCOCC2)cc1 | inconclusive: 20.4% | –
45 | CCn1c(C)c(C)c2cc(C(=O)NCCc3ccco3)ccc21 | inconclusive: -28.7% | –
46 | CC(C)(CNC(=O)C1CCCC1)CNC(=O)C1CCCC1 | inconclusive: 16% | –
47 | Cc1ccc(F)c(NC(=S)Nc2cccc3ccccc23)c1 | inconclusive: 22.8% | –
48 | Cc1cc(NC(=O)CSc2nc(-c3ccccc3)c(C#N)c(=O)[nH]2)no1 | inconclusive: 0.652% | –
49 | Cn1c(NC(=O)c2cccc(Cn3cc(Cl)cn3)c2)nc2ccccc21 | – | inconclusive: 1.3 µM [activator, partial curve]
50 | Cc1cc(CC(=O)O)n(C)c1C(=O)c1ccc(Cl)cc1 | inconclusive: 7.97% | –
51 | CC(NC(=O)CN1CCN(c2ccc(Cl)cc2)CC1)c1ccccc1 (centres undefined) | inactive: -3.9% | –
52 | COc1ccc(C(=O)C2CCCCC2=O)cc1 (centres undefined) | inconclusive: -2.11% | –
53 | Cc1cccc(NC(=O)CN2C(=O)c3ccccc3S2(=O)=O)n1 | inconclusive | –
54 | O=C(Nc1ccc(CN2CCS(=O)(=O)CC2)cc1)c1ccccc1 | inconclusive: 36.6% | –
